Measurements published in paper PMC5536354.
These are yes or no findings as the source states them, for the method shown. Some entries that bind do so weakly or less than the wild type. Sequences can lack the tags named with a protein.

Protein sequences, listed by entry. Tags and fused reporters are not part of them.
UniProt P29555: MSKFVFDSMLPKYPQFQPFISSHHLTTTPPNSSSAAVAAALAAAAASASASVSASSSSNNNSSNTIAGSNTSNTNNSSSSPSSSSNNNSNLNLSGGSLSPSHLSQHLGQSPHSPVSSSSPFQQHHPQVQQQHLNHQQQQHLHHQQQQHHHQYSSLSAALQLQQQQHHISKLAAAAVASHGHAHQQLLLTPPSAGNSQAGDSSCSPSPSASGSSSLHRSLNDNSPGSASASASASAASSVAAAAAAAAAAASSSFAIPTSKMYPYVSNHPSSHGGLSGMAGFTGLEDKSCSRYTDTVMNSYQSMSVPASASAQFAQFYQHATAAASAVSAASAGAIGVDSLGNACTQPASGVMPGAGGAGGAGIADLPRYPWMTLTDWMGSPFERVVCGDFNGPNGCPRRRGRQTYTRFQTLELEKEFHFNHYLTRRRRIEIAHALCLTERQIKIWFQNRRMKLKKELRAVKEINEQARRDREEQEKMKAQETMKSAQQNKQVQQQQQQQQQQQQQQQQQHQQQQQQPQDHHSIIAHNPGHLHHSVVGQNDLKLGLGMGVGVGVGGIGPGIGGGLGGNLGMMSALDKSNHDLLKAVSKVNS

B1: Extradenticle (Exd), untagged (protein, UniProt P40427 1-376)
chain: MEDPNRMLAHTGGMMAPQGYGLSGQDDGQNAGSENEVRKQKDIGEILQQIMSISEQSLDEAQARKHTLNCHRMKPALFSVLCEIKEKTVLSIRNTQEEEPPDPQLMRLDNMLIAEGVAGPEKGGGGAAAASAAAASQGGSLSIDGADNAIEHSDYRAKLAQIRQIYHQELEKYEQACNEFTTHVMNLLREQSRTRPITPKEIERMVQIIHKKFSSIQMQLKQSTCEAVMILRSRFLDARRKRRNFSKQASEILNEYFYSHLSNPYPSEEAKEELARKCGITVSQVSNWFGNKRIRYKKNIGKAQEEANLYAAKKAAGASPYSMAGPPSGTTTPMMSPAPPQDSMGYPMGSGGYDQQQPYDNSMGGYDPNLHQDLSP

How the values were obtained:
[1] = target: T1, His-Hth and untagged Exd heterodimers (Drosophila) (UniProt O46339+P40427); experiment: native gel or EMSA; purified proteins on IRdye700-labelled DNA probes with the Hox/TALE sites of PntP1OE; native polyacrylamide gel; complexes seen on DNA; equimolar Abd-A and Antp compared; both purified
T1 sequence 1: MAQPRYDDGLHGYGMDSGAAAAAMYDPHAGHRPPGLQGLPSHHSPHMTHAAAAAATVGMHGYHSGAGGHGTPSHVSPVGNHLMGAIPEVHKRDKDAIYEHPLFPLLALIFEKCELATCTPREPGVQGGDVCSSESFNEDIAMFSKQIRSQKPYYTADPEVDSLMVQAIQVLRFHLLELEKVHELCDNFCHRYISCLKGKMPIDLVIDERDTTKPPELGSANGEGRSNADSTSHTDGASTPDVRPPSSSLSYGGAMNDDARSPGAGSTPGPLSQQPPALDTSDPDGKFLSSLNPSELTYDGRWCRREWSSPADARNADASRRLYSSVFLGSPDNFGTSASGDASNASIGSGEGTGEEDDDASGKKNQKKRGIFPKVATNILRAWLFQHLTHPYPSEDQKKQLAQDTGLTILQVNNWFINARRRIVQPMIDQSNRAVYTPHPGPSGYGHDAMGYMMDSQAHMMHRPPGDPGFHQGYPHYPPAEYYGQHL
T1 sequence 2: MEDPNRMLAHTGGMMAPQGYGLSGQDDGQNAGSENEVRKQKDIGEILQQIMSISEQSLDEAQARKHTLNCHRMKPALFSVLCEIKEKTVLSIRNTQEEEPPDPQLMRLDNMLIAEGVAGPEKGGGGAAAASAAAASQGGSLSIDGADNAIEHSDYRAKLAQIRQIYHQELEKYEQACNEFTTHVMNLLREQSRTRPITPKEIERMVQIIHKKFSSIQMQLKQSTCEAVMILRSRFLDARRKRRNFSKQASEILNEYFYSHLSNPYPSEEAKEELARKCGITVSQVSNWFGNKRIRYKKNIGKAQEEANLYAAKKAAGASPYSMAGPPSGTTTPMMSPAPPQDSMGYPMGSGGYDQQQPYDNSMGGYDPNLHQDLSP

[2] = target: T2, Homothorax (Hth), His-tagged (Drosophila) (UniProt O46339); experiment: co-purification; His-Hth and untagged Exd purified together as heterodimers from BL21 bacterial cells, as previously described
T2 sequence: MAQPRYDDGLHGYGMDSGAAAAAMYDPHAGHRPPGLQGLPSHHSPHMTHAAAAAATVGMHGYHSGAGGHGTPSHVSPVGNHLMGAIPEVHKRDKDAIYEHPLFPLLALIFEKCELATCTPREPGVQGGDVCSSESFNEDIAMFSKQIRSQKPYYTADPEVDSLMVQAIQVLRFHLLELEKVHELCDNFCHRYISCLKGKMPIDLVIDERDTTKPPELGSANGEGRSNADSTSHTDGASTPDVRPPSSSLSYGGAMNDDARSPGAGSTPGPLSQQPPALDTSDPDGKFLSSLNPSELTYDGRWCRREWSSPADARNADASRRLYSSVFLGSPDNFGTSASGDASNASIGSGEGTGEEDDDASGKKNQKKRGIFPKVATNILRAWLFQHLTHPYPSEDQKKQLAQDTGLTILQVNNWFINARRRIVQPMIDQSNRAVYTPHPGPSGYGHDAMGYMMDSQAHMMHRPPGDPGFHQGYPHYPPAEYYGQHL

Row | Molecule | binding [1] | binding [2]
1 | Abdominal-A (Abd-A) Hox factor, His-tagged (from UniProt P29555 1-590) | binds | –
2 | B1 | – | binds
